Results are given in words; binding and its absence hold for the method and conditions named. In cells and extracts the contact can be indirect. Here binding means that the protein was enriched with, or labelled near, the bait; the list need not be complete.

The text below walks through data of article doi:10.1101/2020.03.02.973859.

In this experiment the target is T1, K+/Cl- co-transporter KCC2 (mouse (endogenous in mouse forebrain)) (UniProt Q91V14).
T1 sequence: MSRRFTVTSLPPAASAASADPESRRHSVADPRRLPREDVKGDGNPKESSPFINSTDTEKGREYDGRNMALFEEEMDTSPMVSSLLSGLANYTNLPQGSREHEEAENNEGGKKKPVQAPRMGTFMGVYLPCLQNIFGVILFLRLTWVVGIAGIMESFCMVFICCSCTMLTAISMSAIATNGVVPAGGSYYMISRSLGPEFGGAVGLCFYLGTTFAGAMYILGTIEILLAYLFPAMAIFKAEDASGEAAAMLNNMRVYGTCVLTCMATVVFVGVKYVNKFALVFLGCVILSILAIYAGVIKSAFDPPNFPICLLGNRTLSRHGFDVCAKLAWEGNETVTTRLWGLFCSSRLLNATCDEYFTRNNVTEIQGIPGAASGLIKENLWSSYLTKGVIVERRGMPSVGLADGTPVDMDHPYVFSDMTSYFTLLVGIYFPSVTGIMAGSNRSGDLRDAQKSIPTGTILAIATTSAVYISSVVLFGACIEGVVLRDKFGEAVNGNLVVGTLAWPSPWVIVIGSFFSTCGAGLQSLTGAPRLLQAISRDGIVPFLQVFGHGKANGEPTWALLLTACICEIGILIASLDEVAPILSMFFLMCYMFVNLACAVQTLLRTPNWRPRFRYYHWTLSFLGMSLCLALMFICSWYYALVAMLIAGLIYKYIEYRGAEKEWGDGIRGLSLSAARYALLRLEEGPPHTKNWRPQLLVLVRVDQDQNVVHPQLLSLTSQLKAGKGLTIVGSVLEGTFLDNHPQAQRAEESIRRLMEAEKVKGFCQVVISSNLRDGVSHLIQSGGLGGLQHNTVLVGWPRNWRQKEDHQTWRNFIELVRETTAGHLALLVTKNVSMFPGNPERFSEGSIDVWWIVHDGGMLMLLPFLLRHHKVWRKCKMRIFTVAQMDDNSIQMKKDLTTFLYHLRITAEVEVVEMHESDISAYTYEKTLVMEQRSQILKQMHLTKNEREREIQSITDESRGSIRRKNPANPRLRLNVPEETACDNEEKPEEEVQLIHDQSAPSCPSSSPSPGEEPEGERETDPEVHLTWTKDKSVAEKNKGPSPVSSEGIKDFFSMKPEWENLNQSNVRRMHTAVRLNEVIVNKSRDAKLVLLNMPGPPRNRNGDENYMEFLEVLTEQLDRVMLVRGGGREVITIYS
The experiment in a line: affinity purification with mass spectrometry.

Take ATP1A2 (from UniProt Q6PIE5 1-1020): the binding entry is reported as “binds”.

With SCN2A (from UniProt B1AWN6 1-2006), the binding entry is “binds”.
